Entries after “also recorded” stand apart in the source; their conditions may differ. Read-outs that look alike come from different tables or passages of the source. At least one compound was matched to its structure with a doubt left.
Assays:
[1] = Stability of estradiol in solvent mixtures, Hot/Cold cycling; format: physicochemical
[2] = Stability of estradiol solutions after addition of 7% water; format: physicochemical
[3] = estradiol 12 mg/g in CAPMUL MCM
[4] = estradiol 12 mg/g in MIGLYOL 812:CAPMUL PG8 (50:50)
[5] = estradiol 12 mg/g in TRANSCUTOL:MIGLYOL 812:CAPMUL PG8 (5:47:47)
[6] = estradiol 12 mg/g in TRANSCUTOL:MIGLYOL 812:CAPMUL PG8 (5:65:28)

C[C@]12CC[C@@H]3c4ccc(O)cc4CC[C@H]3[C@@H]1CC[C@@H]2O [Estradiol, estradiol]
Results Hot/Cold Cycling ([1]; estradiol 4 mg/g in TRANSCUTOL:MIGLYOL 812 (4:96)): precipitated on Hot/Cold cycling after 96 hours | Results Hot/Cold Cycling ([1]; estradiol 6 mg/g in CAPMUL MCM): did not precipitate under the same conditions for a minimum of 14 days; also recorded: Clear after 14 days | Results Hot/Cold Cycling ([1]; estradiol 6 mg/g in MIGLYOL 812:CAPMUL PG8 (50:50)): did not precipitate under the same conditions for a minimum of 14 days; also recorded: Clear, after 14 days | Results Hot/Cold Cycling ([1]; estradiol 6 mg/g in MIGLYOL 812:CAPMUL PG8 (70:30)): did not precipitate under the same conditions for a minimum of 14 days; also recorded: Clear, after 14 days | Results Hot/Cold Cycling ([1]; estradiol 6 mg/g in TRANSCUTOL:MIGLYOL 812:CAPMUL PG8 (5:80:15)): Clear, after 14 days | Results Hot/Cold Cycling [1, 3]: stable and do not precipitate for at least 12 days; also recorded: stable in solution; also recorded: Clear after 12 days | Results Hot/Cold Cycling [1, 4]: stable and do not precipitate for at least 12 days; also recorded: Clear, after 12 days | Results Hot/Cold Cycling [1, 5]: stable and do not precipitate for at least 12 days; also recorded: Clear, after 12 days | Results Hot/Cold Cycling [1, 6]: stable and do not precipitate for at least 12 days; also recorded: Clear, after 12 days | Results after addition of 7% water ([2]; estradiol 6 mg/g in CAPMUL MCM): without recrystallization | Results after addition of 7% water ([2]; estradiol 6 mg/g in MIGLYOL 812:CAPMUL PG8 (75:25)): Precipitated | Results after addition of 7% water ([2]; estradiol 6 mg/g in Polyethylene Glycol 400): without recrystallization | Results after addition of 7% water [2, 3]: without recrystallization; also recorded: Clear | Results after addition of 7% water [2, 4]: Hazy | Results after addition of 7% water ([2]; estradiol 12 mg/g in Polyethylene Glycol 400): without recrystallization; also recorded: clear | Results after addition of 7% water [2, 5]: Hazy | Results after addition of 7% water [2, 6]: Hazy | visual appearance of mixture (0.3% estradiol in each oil (soy bean, peanut, safflower), vortex 2 hours, 50° C. 30 minutes, mixed 1 hour): still in suspension form | visual appearance of mixture (diluted to 0.2% estradiol in each oil, mixed 2 hours, 50° C. 30 min, mixed one hour): still slightly cloudy
